# PubChem BioAssay AID1224826 – NIAID – 2016
# Test: 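Genes that change LPS-induced Tnf promoter activity in mouse macrophages when knocked down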 (primary screen)
# Cell system: RAW264.7 G9 macrophages from mouse bearing reporters for p65 (GFP) and the Tnf promoter (mCherry)
# Reagents: siRNA pool against mouse genes, 100 nM
# Duration: 16 h of LPS stimulation, after 2 days of siRNA transfection
# Conditions: bacterial lipopolysaccharide (Salmonella minnesota R595), 10 ng/ml
# Measurement: 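Nuclear mCherry signal of the Tnf promoter reporter measured by imaging after background removal, scaled to each plate median and turned into robust z-scores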
# Direction: Tnf reporter robust z-score: higher = stronger Tnf promoter reporter signal after LPS; Tnf reporter intensity: higher = stronger Tnf promoter reporter signal
# Active means: 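a well counts as active at a score of -1.3 or below (Tlr4 knock-down control median) or above 3 (raised signal); controls and wells holding fewer than 50 cells are excluded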
# Meaning of the calls: active = Tnf reporter clearly lowered or raised; inactive = no clear change in Tnf reporter
# The whole screen tested about 17,000 reagents; this is a random part of them. In the full data, about 1,110 (6.6%) got an active call. 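Active means lowered or raised reporter signal; replicate intensities are raw and not normalised per plate.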
Target gene,PubChem SID,Tnf reporter robust z-score,fewer than 50 cells in well,"Tnf reporter intensity, replicate 1","Tnf reporter intensity, replicate 2",outcome
Grk6 (GeneID 26385),SID315470369,0.58,enough cells in well,292,197,inactive
Tcf23 (GeneID 69852),SID315473918,,fewer than 50 cells per well; well left out of calls,91.4,68.9,inactive
Ccdc7b (GeneID 75453),SID315475125,,fewer than 50 cells per well; well left out of calls,293,124,inactive
Ncaph2 (GeneID 52683),SID315471001,-1.02,enough cells in well,114,124,inactive
Ms4a4b (GeneID 60361),SID315472008,-1.41,enough cells in well,128,50.8,active
Hdlbp (GeneID 110611),SID315476919,0.15,enough cells in well,229,217,inactive
Cited1 (GeneID 12705),SID315465979,0.28,enough cells in well,266,231,inactive
Or2a12 (GeneID 258292),SID315479986,4.09,enough cells in well,259,248,active
Slc12a5 (GeneID 57138),SID315471718,2.82,enough cells in well,207,187,inactive
Slc19a3 (GeneID 80721),SID315475712,,fewer than 50 cells per well; well left out of calls,95.3,93.4,inactive
Tti2 (GeneID 234138),SID315479142,0.83,enough cells in well,258,272,inactive
Pcdha9 (GeneID 192161),SID315477383,0.18,enough cells in well,188,111,inactive
Pf4 (GeneID 56744),SID315471667,-0.48,enough cells in well,159,144,inactive
Or6c3b (GeneID 258547),SID315480218,,fewer than 50 cells per well; well left out of calls,65.2,45.2,inactive
Ap4m1 (GeneID 11781),SID315465445,0.38,enough cells in well,225,154,inactive
Osbpl5 (GeneID 79196),SID315475664,1.91,enough cells in well,267,195,inactive
Dis3 (GeneID 72662),SID315474601,2.59,enough cells in well,385,157,inactive
Zfp39 (GeneID 22698),SID315470116,-0.25,enough cells in well,121,106,inactive
Rtn4r (GeneID 65079),SID315472138,-0.15,enough cells in well,312,181,inactive
Lrrc40 (GeneID 67144),SID315472865,1.5,enough cells in well,253,221,inactive
Trpv5 (GeneID 194352),SID315477451,-0.65,enough cells in well,191,166,inactive
Fdps (GeneID 110196),SID315476884,-1.46,enough cells in well,129,67.8,active
Cul4b (GeneID 72584),SID315474584,0.11,enough cells in well,271,183,inactive
Glipr1l2 (GeneID 67537),SID315473085,,fewer than 50 cells per well; well left out of calls,123,58.6,inactive
Tpcn1 (GeneID 252972),SID315479921,,fewer than 50 cells per well; well left out of calls,58.8,46.8,inactive
Pmpca (GeneID 66865),SID315472680,1.18,enough cells in well,221,221,inactive
Zfp788 (GeneID 67607),SID315473124,,fewer than 50 cells per well; well left out of calls,157,40.3,inactive
Tti1 (GeneID 75425),SID315475119,0.36,enough cells in well,278,83.9,inactive
Krt86 (GeneID 16679),SID315467695,-0.29,enough cells in well,229,126,inactive
Nemf (GeneID 66244),SID315472313,0.86,enough cells in well,165,166,inactive
Pcdh9 (GeneID 211712),SID315477701,0.43,enough cells in well,280,204,inactive
Mov10 (GeneID 17454),SID315467967,0.87,enough cells in well,145,219,inactive
Or2ag18 (GeneID 258593),SID315480256,0.72,enough cells in well,75.7,146,inactive
Mettl25b (GeneID 229503),SID315478708,-1,enough cells in well,149,123,inactive
Hs2st1 (GeneID 23908),SID315470226,-0.02,enough cells in well,271,144,inactive
Cnot4 (GeneID 53621),SID315471097,0.69,enough cells in well,284,275,inactive
Msx3 (GeneID 17703),SID315467999,3.04,enough cells in well,351,274,active

Part of the list above, reformatted.
Tti2 (GeneID 234138) [SID315479142]
- Tnf reporter robust z-score: 0.83
- fewer than 50 cells in well: enough cells in well
- Tnf reporter intensity, replicate 1: 258
- Tnf reporter intensity, replicate 2: 272
- outcome: inactive

Pcdha9 (GeneID 192161) [SID315477383]
- Tnf reporter robust z-score: 0.18
- fewer than 50 cells in well: enough cells in well
- Tnf reporter intensity, replicate 1: 188
- Tnf reporter intensity, replicate 2: 111
- outcome: inactive

Pf4 (GeneID 56744) [SID315471667]
- Tnf reporter robust z-score: -0.48
- fewer than 50 cells in well: enough cells in well
- Tnf reporter intensity, replicate 1: 159
- Tnf reporter intensity, replicate 2: 144
- outcome: inactive

Or6c3b (GeneID 258547) [SID315480218]
- fewer than 50 cells in well: fewer than 50 cells per well; well left out of calls
- Tnf reporter intensity, replicate 1: 65.2
- Tnf reporter intensity, replicate 2: 45.2
- outcome: inactive

Ap4m1 (GeneID 11781) [SID315465445]
- Tnf reporter robust z-score: 0.38
- fewer than 50 cells in well: enough cells in well
- Tnf reporter intensity, replicate 1: 225
- Tnf reporter intensity, replicate 2: 154
- outcome: inactive

Further entries follow.
Target gene,PubChem SID,Tnf reporter robust z-score,fewer than 50 cells in well,"Tnf reporter intensity, replicate 1","Tnf reporter intensity, replicate 2",outcome
Gpa33 (GeneID 59290),SID315472000,1.42,enough cells in well,359,246,inactive
Pgap6 (GeneID 60455),SID315472019,,fewer than 50 cells per well; well left out of calls,96.7,105,inactive
Epm2aip1 (GeneID 77781),SID315475509,1.24,enough cells in well,334,205,inactive
1700065D16Rik (GeneID 73410),SID315474722,1.11,enough cells in well,324,102,inactive
Cwf19l2 (GeneID 244672),SID315479776,0.43,enough cells in well,189,226,inactive
Wrap53 (GeneID 216853),SID315478042,-0.75,enough cells in well,163,144,inactive
Dpcd (GeneID 226162),SID315478477,0.68,enough cells in well,219,179,inactive
Rps6ka6 (GeneID 67071),SID315472816,,fewer than 50 cells per well; well left out of calls,124,108,inactive
Tec (GeneID 21682),SID315469653,-1.54,enough cells in well,84.2,63.7,active
Il22b (GeneID 116849),SID315477064,-1.1,enough cells in well,173,78.7,inactive
Vmn1r73 (GeneID 171237),SID315477313,,fewer than 50 cells per well; well left out of calls,55.2,32.4,inactive
Dbil5 (GeneID 13168),SID315466270,-1.03,enough cells in well,130,95.5,inactive
Cibar1 (GeneID 68099),SID315473412,0.69,enough cells in well,241,212,inactive
Ago2 (GeneID 239528),SID315479445,0.06,enough cells in well,187,120,inactive
Alk (GeneID 11682),SID315465390,-0.69,enough cells in well,158,114,inactive
Aldh4a1 (GeneID 212647),SID315477754,-1.74,enough cells in well,91,78.9,active
Ccr7 (GeneID 12775),SID315466019,0.73,enough cells in well,263,378,inactive
Edf1 (GeneID 59022),SID315471957,0.74,enough cells in well,272,304,inactive
Il3ra (GeneID 16188),SID315467455,0.64,enough cells in well,260,205,inactive
Ect2 (GeneID 13605),SID315466429,-0.39,enough cells in well,173,228,inactive
Lce3c (GeneID 94060),SID315476022,0.14,enough cells in well,75.6,96.5,inactive
